Assay results as given in US20240125768A1, “METHODS FOR MODULATING A SRC-1 CONDENSATE” (ETERN BIOPHARMA (SHANGHAI) CO., LTD., priority 2021, published 2024).
No constants are given. Whether binding was seen depends on the method and setting. In cells and extracts the contact can be indirect. Some binding calls cover weakened binding; strength is not graded here.

Sequences of proteins named here, by UniProt entry; tags and fusion partners are left off. Residues count along the entry.
UniProt Q15561: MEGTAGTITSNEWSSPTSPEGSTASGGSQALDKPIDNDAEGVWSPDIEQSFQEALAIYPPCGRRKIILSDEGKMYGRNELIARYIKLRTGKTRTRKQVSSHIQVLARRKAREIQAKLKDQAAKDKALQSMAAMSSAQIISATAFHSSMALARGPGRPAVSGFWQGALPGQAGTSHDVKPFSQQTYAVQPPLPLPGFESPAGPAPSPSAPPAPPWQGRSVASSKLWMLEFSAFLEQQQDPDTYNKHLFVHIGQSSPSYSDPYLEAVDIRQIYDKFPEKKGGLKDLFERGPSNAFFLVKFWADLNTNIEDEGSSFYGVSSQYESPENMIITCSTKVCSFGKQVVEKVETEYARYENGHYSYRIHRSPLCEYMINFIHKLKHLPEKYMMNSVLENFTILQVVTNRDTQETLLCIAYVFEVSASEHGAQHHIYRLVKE
UniProt P46937: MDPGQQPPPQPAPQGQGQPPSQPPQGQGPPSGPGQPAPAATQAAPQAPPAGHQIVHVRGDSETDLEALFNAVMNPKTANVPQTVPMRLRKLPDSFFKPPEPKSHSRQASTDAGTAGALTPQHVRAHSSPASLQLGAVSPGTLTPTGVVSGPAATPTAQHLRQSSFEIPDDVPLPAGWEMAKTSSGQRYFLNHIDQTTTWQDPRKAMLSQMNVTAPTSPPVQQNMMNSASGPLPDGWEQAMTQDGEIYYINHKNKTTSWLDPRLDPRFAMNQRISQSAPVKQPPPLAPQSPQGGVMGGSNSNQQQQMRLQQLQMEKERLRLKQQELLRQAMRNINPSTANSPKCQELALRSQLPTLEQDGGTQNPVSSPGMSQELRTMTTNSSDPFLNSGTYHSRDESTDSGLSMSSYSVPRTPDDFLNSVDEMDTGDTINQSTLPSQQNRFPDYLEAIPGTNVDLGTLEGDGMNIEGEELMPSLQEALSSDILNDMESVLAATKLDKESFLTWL
UniProt Q15788, residues 2-1441: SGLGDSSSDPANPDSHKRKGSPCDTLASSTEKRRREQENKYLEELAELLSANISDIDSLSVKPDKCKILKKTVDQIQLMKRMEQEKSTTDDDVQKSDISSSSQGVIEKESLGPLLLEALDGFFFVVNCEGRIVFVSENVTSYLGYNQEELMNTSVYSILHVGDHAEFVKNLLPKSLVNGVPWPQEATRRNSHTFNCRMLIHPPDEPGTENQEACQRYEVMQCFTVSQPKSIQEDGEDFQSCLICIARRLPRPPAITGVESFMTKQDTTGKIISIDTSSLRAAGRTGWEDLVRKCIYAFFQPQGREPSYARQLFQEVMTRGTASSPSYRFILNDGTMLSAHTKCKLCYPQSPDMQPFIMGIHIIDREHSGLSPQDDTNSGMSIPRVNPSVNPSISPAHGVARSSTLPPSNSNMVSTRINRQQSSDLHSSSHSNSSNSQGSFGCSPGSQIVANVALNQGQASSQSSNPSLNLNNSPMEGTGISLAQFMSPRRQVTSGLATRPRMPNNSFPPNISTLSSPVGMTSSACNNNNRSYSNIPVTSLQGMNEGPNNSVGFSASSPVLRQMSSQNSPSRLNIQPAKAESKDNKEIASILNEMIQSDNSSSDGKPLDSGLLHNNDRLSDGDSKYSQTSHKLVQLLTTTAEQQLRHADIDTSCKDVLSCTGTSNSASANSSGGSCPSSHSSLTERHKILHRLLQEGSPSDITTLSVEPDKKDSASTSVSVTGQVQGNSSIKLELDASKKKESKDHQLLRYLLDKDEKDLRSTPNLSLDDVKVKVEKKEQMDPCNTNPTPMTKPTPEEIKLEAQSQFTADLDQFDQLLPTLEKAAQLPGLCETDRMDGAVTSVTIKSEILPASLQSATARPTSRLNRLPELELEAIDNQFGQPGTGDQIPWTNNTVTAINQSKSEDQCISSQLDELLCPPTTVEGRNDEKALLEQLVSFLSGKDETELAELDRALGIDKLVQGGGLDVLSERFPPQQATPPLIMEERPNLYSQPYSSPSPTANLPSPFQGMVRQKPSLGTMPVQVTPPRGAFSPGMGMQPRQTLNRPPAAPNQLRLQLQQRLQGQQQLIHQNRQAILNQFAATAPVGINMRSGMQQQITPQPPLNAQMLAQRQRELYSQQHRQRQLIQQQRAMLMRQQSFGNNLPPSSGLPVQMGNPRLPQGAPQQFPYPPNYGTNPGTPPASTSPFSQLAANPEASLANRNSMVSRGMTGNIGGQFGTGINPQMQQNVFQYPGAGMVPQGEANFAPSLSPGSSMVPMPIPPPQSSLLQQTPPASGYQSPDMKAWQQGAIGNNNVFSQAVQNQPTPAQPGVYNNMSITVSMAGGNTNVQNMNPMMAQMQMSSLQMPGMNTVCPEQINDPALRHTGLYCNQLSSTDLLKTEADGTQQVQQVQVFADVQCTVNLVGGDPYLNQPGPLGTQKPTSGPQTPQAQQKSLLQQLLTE

Experiments:
[1] = molecular target: endogenous TEAD4 in SF268 cells (human) (UniProt Q15561); assay: co-immunoprecipitation under endogenous conditions, SF268 cells
[2] = molecular target: endogenous YAP (Yes-associated protein) in SF268 cells (human) (UniProt P46937); assay: as above
[3] = molecular target: endogenous YAP (Yes-associated protein) in SF268 cells (human) (UniProt P46937); assay: co-immunoprecipitation with anti-SRC1 antibody from SF268 lysate, immunoblot
[4] = molecular target: endogenous TEAD4 in SF268 cells (human) (UniProt Q15561); assay: co-immunoprecipitation with anti-TEAD4 antibody from SF268 lysate, immunoblot

Measured: binding

endogenous SRC-1 (steroid receptor coactivator-1) in SF268 cells (from UniProt Q15788 2-1441)
binds: [1] | [2] | [3] | [4]
